# Data from ChEMBL document CHEMBL1138139, “Synthesis of 1-(3',4',5'-trimethoxy) phenyl naphtho[2,1b]furan as a novel anticancer agent” (Bioorg Med Chem Lett, 2006).
# Tested on: MCF7
# Experiment: Cytotoxicity against MCF7 cell line by MTT assay
# Type: functional, cell-based
# Conditions: Homo sapiens
smiles,measurement,value
CC(=O)O[C@H]1C(=O)[C@@]2(C)[C@H]([C@H](OC(=O)c3ccccc3)[C@]3(O)C[C@H](OC(=O)[C@H](O)[C@@H](NC(=O)c4ccccc4)c4ccccc4)C(C)=C1C3(C)C)[C@]1(OC(C)=O)CO[C@@H]1C[C@@H]2O [PACLITAXEL],IC50,5 ng/mL
